# Laboratory results published in the supplement of paper PMC8728848.
# Some of the results follow.
# B1: Nc3LysM-2 (protein)
# chain: AHVLQARQSVSCDFATAANTGDTCASFAAAWGITEAAFAKLNPGVSCPGNLIAGSEYCVIGTVSTGAPTTTKAATTSTTPPTTTTTTKATTLSTSTTSVSPTGPSPQMPSITSTCNKFYQVQSGDGCWSIEQAQGVSASDFMAWNKAVDAQCDNLWLGYYVCVGVKGGSSPPPTTTTKPASSSAPTPQMPNTVSNCKKFHKVVSGDGCWAIEQAAGISASDFAKWNPYVDAACDNLWLGYYVCIGV
# Columns and labels:
# Assay in all cases: glycan array binding signal (z-score within array); higher = stronger binding
# Conditions in all cases: glycan notation: IUPAC condensed, linker removed
# [1] = target: Gal(b1-4)GlcNAc(b1-3)Gal(b1-4)GlcNAc(b1-2)[Gal(b1-4)GlcNAc(b1-3)Gal(b1-4)GlcNAc(b1-6)]Man(a1-6)[Gal(b1-4)GlcNAc(b1-3)Gal(b1-4)GlcNAc(b1-2)Man(a1-3)]Man(b1-4)GlcNAc(b1-4)GlcNAc
# Procedure, shortened: (§1)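 The binding signal is a Z-score computed within each array and averaged over linkers. Arrays of the same protein sequence at different concentrations or buffers were also averaged together. Data originate from 3228 arrays in the Consortium for Functional Glycomics database, kept only where the protein sequence was available.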
# [2] = target: Gal(b1-4)GlcNAc(b1-3)Gal(b1-4)GlcNAc(b1-2)[Gal(b1-4)GlcNAc(b1-3)Gal(b1-4)GlcNAc(b1-6)]Man(a1-6)[Gal(b1-4)GlcNAc(b1-3)Gal(b1-4)GlcNAc(b1-2)Man(a1-3)]Man(b1-4)GlcNAc(b1-4)[Fuc(a1-6)]GlcNAc
# Procedure, shortened: as §1
# [3] = target: Gal(b1-4)GlcNAc(b1-3)Gal(b1-4)GlcNAc(b1-3)Gal(b1-4)GlcNAc
# Procedure, shortened: as §1
# [4] = target: Gal(b1-4)GlcNAc(b1-3)Gal(b1-4)GlcNAc(b1-3)Gal(b1-4)GlcNAc(b1-2)Man(a1-3)[Gal(b1-4)GlcNAc(b1-3)Gal(b1-4)GlcNAc(b1-3)Gal(b1-4)GlcNAc(b1-2)Man(a1-6)]Man(b1-4)GlcNAc(b1-4)GlcNAc
# Procedure, shortened: as §1
# [5] = target: Gal(b1-4)GlcNAc(b1-3)Gal(b1-4)GlcNAc(b1-3)Gal(b1-4)GlcNAc(b1-2)Man(a1-3)[Gal(b1-4)GlcNAc(b1-3)Gal(b1-4)GlcNAc(b1-3)Gal(b1-4)GlcNAc(b1-2)Man(a1-6)]Man(b1-4)GlcNAc(b1-4)[Fuc(a1-6)]GlcNAc
# Procedure, shortened: as §1
# [6] = target: Gal(b1-4)GlcNAc(b1-3)Gal(b1-4)GlcNAc(b1-3)Gal(b1-4)GlcNAc(b1-2)[Gal(b1-4)GlcNAc(b1-3)Gal(b1-4)GlcNAc(b1-3)Gal(b1-4)GlcNAc(b1-6)]Man(a1-6)[Gal(b1-4)GlcNAc(b1-3)Gal(b1-4)GlcNAc(b1-3)Gal(b1-4)GlcNAc(b1-2)Man(a1-3)]Man(b1-4)GlcNAc(b1-4)[Fuc(a1-6)]GlcNAc
# Procedure, shortened: as §1
# [7] = target: Gal(b1-4)GlcNAc(b1-3)Gal(b1-4)GlcNAc(b1-3)Gal(b1-4)GlcNAc(b1-3)Gal(b1-4)GlcNAc(b1-2)Man(a1-3)[Gal(b1-4)GlcNAc(b1-3)Gal(b1-4)GlcNAc(b1-3)Gal(b1-4)GlcNAc(b1-3)Gal(b1-4)GlcNAc(b1-2)Man(a1-6)]Man(b1-4)GlcNAc(b1-4)GlcNAc
# Procedure, shortened: as §1
# [8] = target: Gal(b1-4)GlcNAc(b1-3)Gal(b1-4)GlcNAc(b1-3)Gal(b1-4)GlcNAc(b1-3)Gal(b1-4)GlcNAc(b1-2)Man(a1-3)[Gal(b1-4)GlcNAc(b1-3)Gal(b1-4)GlcNAc(b1-3)Gal(b1-4)GlcNAc(b1-3)Gal(b1-4)GlcNAc(b1-2)Man(a1-6)]Man(b1-4)GlcNAc(b1-4)[Fuc(a1-6)]GlcNAc
# Procedure, shortened: as §1
# [9] = target: Gal(b1-4)GlcNAc(b1-3)Gal(b1-4)GlcNAc(b1-3)Gal(b1-4)GlcNAc(b1-3)Gal(b1-4)GlcNAc(b1-2)[Gal(b1-4)GlcNAc(b1-3)Gal(b1-4)GlcNAc(b1-3)Gal(b1-4)GlcNAc(b1-3)Gal(b1-4)GlcNAc(b1-6)]Man(a1-6)[Gal(b1-4)GlcNAc(b1-3)Gal(b1-4)GlcNAc(b1-3)Gal(b1-4)GlcNAc(b1-3)Gal(b1-4)GlcNAc(b1-2)Man(a1-3)]Man(b1-4)GlcNAc(b1-4)[Fuc(a1-6)]GlcNAc
# Procedure, shortened: as §1
# [10] = target: Gal(b1-4)GlcNAc(b1-3)Gal(b1-4)GlcNAc(b1-3)Gal(b1-4)GlcNAc(b1-3)Gal(b1-4)GlcNAc(b1-3)Gal(b1-4)GlcNAc(b1-2)Man(a1-3)[Gal(b1-4)GlcNAc(b1-3)Gal(b1-4)GlcNAc(b1-3)Gal(b1-4)GlcNAc(b1-3)Gal(b1-4)GlcNAc(b1-3)Gal(b1-4)GlcNAc(b1-2)Man(a1-6)]Man(b1-4)GlcNAc(b1-4)GlcNAc
# Procedure, shortened: as §1
# [11] = target: Gal(b1-4)GlcNAc(b1-3)Gal(b1-4)GlcNAc(b1-3)Gal(b1-4)GlcNAc(b1-3)Gal(b1-4)GlcNAc(b1-3)Gal(b1-4)GlcNAc(b1-2)Man(a1-3)[Gal(b1-4)GlcNAc(b1-3)Gal(b1-4)GlcNAc(b1-3)Gal(b1-4)GlcNAc(b1-3)Gal(b1-4)GlcNAc(b1-3)Gal(b1-4)GlcNAc(b1-2)Man(a1-6)]Man(b1-4)GlcNAc(b1-4)[Fuc(a1-6)]GlcNAc
# Procedure, shortened: as §1
# [12] = target: Gal(b1-4)GlcNAc(b1-3)Gal(b1-4)GlcNAc(b1-3)Gal(b1-4)GlcNAc(b1-3)Gal(b1-4)GlcNAc(b1-3)Gal(b1-4)GlcNAc(b1-2)[Gal(b1-4)GlcNAc(b1-3)Gal(b1-4)GlcNAc(b1-3)Gal(b1-4)GlcNAc(b1-3)Gal(b1-4)GlcNAc(b1-3)Gal(b1-4)GlcNAc(b1-6)]Man(a1-6)[Gal(b1-4)GlcNAc(b1-3)Gal(b1-4)GlcNAc(b1-3)Gal(b1-4)GlcNAc(b1-3)Gal(b1-4)GlcNAc(b1-3)Gal(b1-4)GlcNAc(b1-2)Man(a1-3)]Man(b1-4)GlcNAc(b1-4)[Fuc(a1-6)]GlcNAc
# Procedure, shortened: as §1
# [13] = target: Gal(b1-4)GlcNAc(b1-3)Gal(b1-4)GlcNAc(b1-3)Gal(b1-4)GlcNAc(b1-3)Gal(b1-4)GlcNAc(b1-3)Gal(b1-4)GlcNAc(b1-3)Gal(b1-4)GlcNAc(b1-2)Man(a1-3)[Gal(b1-4)GlcNAc(b1-3)Gal(b1-4)GlcNAc(b1-3)Gal(b1-4)GlcNAc(b1-3)Gal(b1-4)GlcNAc(b1-3)Gal(b1-4)GlcNAc(b1-3)Gal(b1-4)GlcNAc(b1-2)Man(a1-6)]Man(b1-4)GlcNAc(b1-4)GlcNAc
# Procedure, shortened: as §1
# [14] = target: Gal(b1-4)GlcNAc(b1-3)Gal(b1-4)GlcNAc(b1-3)GalNAc
# Procedure, shortened: as §1
# [15] = target: Gal(b1-4)GlcNAc(b1-3)Gal(b1-4)GlcNAc(b1-3)[Gal(b1-4)GlcNAc(b1-3)Gal(b1-4)GlcNAc(b1-6)]GalNAc
# Procedure, shortened: as §1
# [16] = target: Gal(b1-4)GlcNAc(b1-3)Gal(b1-4)GlcNAc(b1-6)[Gal(b1-3)]GalNAc
# Procedure, shortened: as §1
# [17] = target: Gal(b1-4)GlcNAc(b1-3)Gal(b1-4)[Fuc(a1-3)]GlcNAc(b1-3)Gal(b1-4)[Fuc(a1-3)]GlcNAc
# Procedure, shortened: as §1
# [18] = target: Gal(b1-4)GlcNAc(b1-3)GalNAc
# Procedure, shortened: as §1
# [19] = target: Gal(b1-4)GlcNAc(b1-3)[Fuc(a1-3)GlcNAc(b1-6)]Gal(b1-4)Glc
# Procedure, shortened: as §1
# [20] = target: Gal(b1-4)GlcNAc(b1-3)[Gal(b1-4)GlcNAc(b1-6)]Gal(b1-4)GlcNAc
# Procedure, shortened: as §1
# [21] = target: Gal(b1-4)GlcNAc(b1-3)[GlcNAc(b1-6)]Gal(b1-4)GlcNAc
# Procedure, shortened: as §1
# [22] = target: Gal(b1-4)GlcNAc(b1-6)Gal(b1-4)GlcNAc
# Procedure, shortened: as §1
# [23] = target: Gal(b1-4)GlcNAc(b1-6)GalNAc
# Procedure, shortened: as §1
# [24] = target: Gal(b1-4)GlcNAc(b1-6)[Gal(b1-3)]GalNAc
# Procedure, shortened: as §1
# [25] = target: Gal(b1-4)GlcNAc(b1-6)[Gal(b1-4)GlcNAc(b1-3)]GalNAc
# Procedure, shortened: as §1
# [26] = target: Gal(b1-4)GlcNAc6P
# Procedure, shortened: as §1
# [27] = target: Gal(b1-6)Gal
# Procedure, shortened: as §1
# [28] = target: Gal3S(b1-3)GalNAc
# Procedure, shortened: as §1
# [29] = target: Gal3S(b1-3)GlcNAc
# Procedure, shortened: as §1
# [30] = target: Gal3S(b1-3)[Fuc(a1-4)]GlcNAc
# Procedure, shortened: as §1
# [31] = target: Gal3S(b1-4)Glc
# Procedure, shortened: as §1
# [32] = target: Gal3S(b1-4)Glc6S
# Procedure, shortened: as §1
# [33] = target: Gal3S(b1-4)GlcNAc
# Procedure, shortened: as §1
# [34] = target: Gal3S(b1-4)[Fuc(a1-3)]Glc6S
# Procedure, shortened: as §1
# [35] = target: Gal3S(b1-4)[Fuc(a1-3)]GlcNAc
# Procedure, shortened: as §1
# [36] = target: Gal3S(b1-4)[Fuc(a1-3)]GlcNAc6S
# Procedure, shortened: as §1
# [37] = target: Gal3S4S(b1-4)GlcNAc
# Procedure, shortened: as §1
binder,measurement,setting,value
B1,glycan array binding signal (z-score),[1],-0.122
same,glycan array binding signal (z-score),[2],1.05
same,glycan array binding signal (z-score),[3],0.011
same,glycan array binding signal (z-score),[4],1.25
same,glycan array binding signal (z-score),[5],2.69
same,glycan array binding signal (z-score),[6],5.8
same,glycan array binding signal (z-score),[7],1
same,glycan array binding signal (z-score),[8],1.77
same,glycan array binding signal (z-score),[9],0.832
same,glycan array binding signal (z-score),[10],-0.233
same,glycan array binding signal (z-score),[11],0.558
same,glycan array binding signal (z-score),[12],2.29
same,glycan array binding signal (z-score),[13],0.254
same,glycan array binding signal (z-score),[14],-1
same,glycan array binding signal (z-score),[15],0.109
same,glycan array binding signal (z-score),[16],-0.163
same,glycan array binding signal (z-score),[17],-0.357
same,glycan array binding signal (z-score),[18],-1.09
same,glycan array binding signal (z-score),[19],-0.719
same,glycan array binding signal (z-score),[20],0.733
same,glycan array binding signal (z-score),[21],-0.676
same,glycan array binding signal (z-score),[22],-0.253
same,glycan array binding signal (z-score),[23],-0.281
same,glycan array binding signal (z-score),[24],-0.655
same,glycan array binding signal (z-score),[25],0.159
same,glycan array binding signal (z-score),[26],-0.517
same,glycan array binding signal (z-score),[27],0.212
same,glycan array binding signal (z-score),[28],0.389
same,glycan array binding signal (z-score),[29],-0.735
same,glycan array binding signal (z-score),[30],0.035
same,glycan array binding signal (z-score),[31],1.72
same,glycan array binding signal (z-score),[32],0.225
same,glycan array binding signal (z-score),[33],0.749
same,glycan array binding signal (z-score),[34],1.61
same,glycan array binding signal (z-score),[35],0.518
same,glycan array binding signal (z-score),[36],0.593
same,glycan array binding signal (z-score),[37],-2.11

# Three records drawn at random from the list so far, as already listed:
binder,measurement,setting,value
B1,glycan array binding signal (z-score),[18],-1.09
same,glycan array binding signal (z-score),[17],-0.357
same,glycan array binding signal (z-score),[15],0.109
